This is an account of results in PMC7819943, “Rice protein-binding microarrays: a tool to detect cis-acting elements near promoter regions in rice”.

This is one part of the list.

The target of the assay is T1, OsSMF1 (Oryza sativa, UniProt Q6ZLB0 1-436).
T1 sequence: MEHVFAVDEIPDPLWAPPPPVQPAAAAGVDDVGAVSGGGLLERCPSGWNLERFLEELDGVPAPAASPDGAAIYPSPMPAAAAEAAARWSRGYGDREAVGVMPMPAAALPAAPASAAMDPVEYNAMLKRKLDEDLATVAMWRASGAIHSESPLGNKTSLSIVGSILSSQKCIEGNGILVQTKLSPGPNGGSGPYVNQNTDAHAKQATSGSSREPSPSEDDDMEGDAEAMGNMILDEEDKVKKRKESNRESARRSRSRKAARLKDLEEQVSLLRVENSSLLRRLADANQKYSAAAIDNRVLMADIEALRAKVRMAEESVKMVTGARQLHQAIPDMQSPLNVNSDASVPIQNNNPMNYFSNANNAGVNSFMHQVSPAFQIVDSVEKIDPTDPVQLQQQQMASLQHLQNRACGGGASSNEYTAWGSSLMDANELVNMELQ
Briefly: protein-binding microarray (RPBM); PBS, 2% BSA, 51.3 ng/ul salmon testes DNA, 50 uM zinc acetate, 200 nM TF, 25 C, 1 h; high values mean tight binding. As to conditions: protein: recombinant; tags: N-terminal polyhistidine and DsRed monomer fusion (pET32a); chain copies: 2; label: CyDye5-dUTP incorporated in the synthesized complementary strand; 3' TTTTT single-stranded linker to array surface; dsDNA, one strand shown. Put shortly:
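Polyhistidine-tagged DsRed fusions of transcription factors, joined at the N-terminus, were expressed in E. coli BL21-CodonPlus and isolated on Ni–NTA. They were incubated at 200 nM for 1 h at 25 °C on a custom Agilent array, double-stranded and BSA-blocked, in PBS with 2% BSA, salmon testes DNA and 50 µM zinc acetate. The binding signal is per-feature fluorescence intensity (arbitrary units) read on an Axon 4000B scanner after washing.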
As for “TCCACAGTTGATGTCACGTAAGATGAAGAACATGTCAGCACGGAGTCACCTAGTGCAG”, the binding signal is 5520 fluorescence intensity (a.u.). The value for “CCAACTCACACACACTAAACATATTTACACACGCAGCACACGGAGTCACCTAGTGCAG” was 3160 fluorescence intensity (a.u.); that for “AGAGAATGGATTCAACTTGCACATACTGCTGCTCGTCACACGGAGTCACCTAGTGCAG” was 3380 fluorescence intensity (a.u.); that for “GAAACAAAGGACCGACTCCGCCTATCCATCGTCACGAGCACGGAGTCACCTAGTGCAG” was 3760 fluorescence intensity (a.u.). “CTCGGTGATGCAGGTTGGCTCGCAACGCCAACGTGTTGTGCGGAGTCACCTAGTGCAG”: the binding signal was 3400 fluorescence intensity (a.u.). In the case of “AGTAAGAATATTAAATGTGAGTCATGAGTCAACGGGGTCACGGAGTCACCTAGTGCAG”, the binding signal was 7880 fluorescence intensity (a.u.).

Regarding “GCTAGCCGGGTGCATTCGTCACTACACTTTTCTAATTTCTCGGAGTCACCTAGTGCAG”, the binding signal is 3700 fluorescence intensity (a.u.). The value for “CTCGGGCCGTGCCGGCACGAGATGCCACGGTTCACATGAGCGGAGTCACCTAGTGCAG” was 35900 fluorescence intensity (a.u.). Take “CATCGTGCCGCACCCGATTCCTCATCCGCGTCATCTCCACCGGAGTCACCTAGTGCAG”: the binding signal was 7800 fluorescence intensity (a.u.). Then “TCACGAGCCGCCGCTCGTTACACGTTCGCGCCGTATATTACGGAGTCACCTAGTGCAG”, with 28100 fluorescence intensity (a.u.). With “TTAATCGTACACTAAGCTTTTACATTAGTACTAGAGCTAACGGAGTCACCTAGTGCAG”, the binding signal is 3860 fluorescence intensity (a.u.). Then “GCAGCCGGTGACACCACAAAATCCTCTCGCGCTCTCGCTCCGGAGTCACCTAGTGCAG”, with 3900 fluorescence intensity (a.u.); and “GCATGGTTGTCGCCGCGACACGTGCCGGCGCGCGCACCTCCGGAGTCACCTAGTGCAG”, with 6430 fluorescence intensity (a.u.). The value for “CGGTCTCTCGCCTTGTCACCTTACTTGCTTGGCTACTACTCGGAGTCACCTAGTGCAG” was 5610 fluorescence intensity (a.u.). As for “TCCAAGAAAGTGACCAAGCAAATGACGCAAGTGGTGCACGCGGAGTCACCTAGTGCAG”, the binding signal was 40200 fluorescence intensity (a.u.).

Turning to “GCCCACTTATGGTGGGCCCCGTGGGCCCCACGTGTCACTTCGGAGTCACCTAGTGCAG”, the binding signal was 16100 fluorescence intensity (a.u.). Take “ACCAACGGCCCGAGTCCGACACACGTCTCACGCACGAGCACGGAGTCACCTAGTGCAG”: the binding signal was 3910 fluorescence intensity (a.u.). The value for “TGAGTTATGCTGTATACACATAATCTGTTGTTTCTCTAAACGGAGTCACCTAGTGCAG” was 3860 fluorescence intensity (a.u.); that for “TATTGGGTATTCCCATGGAAATGGTTGGTTTCGTGCTCTGCGGAGTCACCTAGTGCAG” was 3900 fluorescence intensity (a.u.). Then “GTAAGAATTGGCTGTTAGATTGGCTATAAATGAATTGGAGCGGAGTCACCTAGTGCAG”, with 50800 fluorescence intensity (a.u.); and “GGAGACCATCGCCCCTGTTCTCGTCGTCATCGCGGAGGTTCGGAGTCACCTAGTGCAG”, with 4210 fluorescence intensity (a.u.); and “AAAGGGAAGTTAATGGGTACGAGGAAGGATGACGTGGCGGCGGAGTCACCTAGTGCAG”, with 29000 fluorescence intensity (a.u.).

On to “AGAAGCCCACCACCACGCGCGGAGCGGCCGAGGAGGCCTCCGGAGTCACCTAGTGCAG”, for which the binding signal was 4450 fluorescence intensity (a.u.).
